Values quoted from earlier work, collected in paper PMC13237142, “Proteome-wide quantification of inositol pyrophosphate-protein interactions” (Nature Communications, 2026).

Conditions: variety of human cell lines; cited from earlier work

Compound	Levels in mammalian cells [µM]
O=P(O)(O)O[C@@H]1[C@@H](OP(=O)(O)O)[C@H](OP(=O)(O)OP(=O)(O)O)[C@@H](OP(=O)(O)O)[C@H](OP(=O)(O)OP(=O)(O)O)[C@@H]1OP(=O)(O)O [1,5(PP)2-InsP4, bis-1,5-diphosphoinositol tetrakisphosphate]	0.1 to 0.5
O=P(O)(O)O[C@@H]1[C@@H](OP(=O)(O)O)[C@@H](OP(=O)(O)O)[C@@H](OP(=O)(O)OP(=O)(O)O)[C@H](OP(=O)(O)O)[C@H]1OP(=O)(O)O [1PP-InsP5, 1-diphosphoinositol pentakisphosphate]	0.02 to 0.1
O=P(O)(O)O[C@H]1[C@@H](OP(=O)(O)O)[C@H](OP(=O)(O)O)[C@@H](OP(=O)(O)OP(=O)(O)O)[C@H](OP(=O)(O)O)[C@H]1OP(=O)(O)O [5PP-InsP5, 5-diphosphoinositol pentakisphosphate]	1 to 5
